# Measured values published in the supplement of paper PMC12819154, “High-throughput peptide-centric local stability assay extends protein–ligand identification to membrane proteins, tissues and bacteria” (Nature Structural & Molecular Biology, 2025).
# The chains behind the UniProt entries cited, without tags or fusion partners. Where a name states a change or a piece, a line headed by the entry shows the natural chain unless it says otherwise.
# UniProt Q9UPN7: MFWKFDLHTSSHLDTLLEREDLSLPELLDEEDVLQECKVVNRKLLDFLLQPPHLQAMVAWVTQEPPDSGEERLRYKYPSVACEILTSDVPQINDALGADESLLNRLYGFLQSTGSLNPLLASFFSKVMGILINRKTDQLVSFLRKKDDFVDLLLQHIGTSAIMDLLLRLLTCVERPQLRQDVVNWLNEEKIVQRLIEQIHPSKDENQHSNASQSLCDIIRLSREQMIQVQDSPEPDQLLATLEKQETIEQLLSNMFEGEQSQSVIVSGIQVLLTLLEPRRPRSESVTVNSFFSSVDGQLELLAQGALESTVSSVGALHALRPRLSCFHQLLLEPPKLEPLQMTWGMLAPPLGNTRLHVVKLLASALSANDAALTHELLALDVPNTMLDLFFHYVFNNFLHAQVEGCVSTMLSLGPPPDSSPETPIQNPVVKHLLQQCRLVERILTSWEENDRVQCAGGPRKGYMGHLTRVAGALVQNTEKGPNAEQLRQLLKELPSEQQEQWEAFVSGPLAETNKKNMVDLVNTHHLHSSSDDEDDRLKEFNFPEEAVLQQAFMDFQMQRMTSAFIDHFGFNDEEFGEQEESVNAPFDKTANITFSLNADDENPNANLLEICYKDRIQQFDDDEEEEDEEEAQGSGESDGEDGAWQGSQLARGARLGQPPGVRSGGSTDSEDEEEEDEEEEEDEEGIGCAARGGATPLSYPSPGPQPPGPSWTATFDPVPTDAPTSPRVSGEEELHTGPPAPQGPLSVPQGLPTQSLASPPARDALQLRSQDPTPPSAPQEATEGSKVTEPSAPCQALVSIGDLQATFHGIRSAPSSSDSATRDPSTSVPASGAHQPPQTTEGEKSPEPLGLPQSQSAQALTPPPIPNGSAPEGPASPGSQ
# UniProt Q9UKD1: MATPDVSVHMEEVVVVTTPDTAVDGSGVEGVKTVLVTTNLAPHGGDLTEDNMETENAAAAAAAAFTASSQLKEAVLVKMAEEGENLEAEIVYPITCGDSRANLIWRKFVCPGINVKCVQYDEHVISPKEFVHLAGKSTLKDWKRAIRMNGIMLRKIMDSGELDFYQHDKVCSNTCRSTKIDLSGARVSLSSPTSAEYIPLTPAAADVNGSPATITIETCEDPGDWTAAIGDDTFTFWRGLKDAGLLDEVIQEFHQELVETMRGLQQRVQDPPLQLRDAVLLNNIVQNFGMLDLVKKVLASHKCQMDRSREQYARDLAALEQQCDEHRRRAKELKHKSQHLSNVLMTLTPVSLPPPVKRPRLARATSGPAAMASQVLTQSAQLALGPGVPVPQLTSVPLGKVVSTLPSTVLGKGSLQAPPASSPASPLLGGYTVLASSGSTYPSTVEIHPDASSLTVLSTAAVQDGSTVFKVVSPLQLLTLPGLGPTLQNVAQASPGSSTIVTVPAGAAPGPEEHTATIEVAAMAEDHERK
# UniProt Q9UMR5: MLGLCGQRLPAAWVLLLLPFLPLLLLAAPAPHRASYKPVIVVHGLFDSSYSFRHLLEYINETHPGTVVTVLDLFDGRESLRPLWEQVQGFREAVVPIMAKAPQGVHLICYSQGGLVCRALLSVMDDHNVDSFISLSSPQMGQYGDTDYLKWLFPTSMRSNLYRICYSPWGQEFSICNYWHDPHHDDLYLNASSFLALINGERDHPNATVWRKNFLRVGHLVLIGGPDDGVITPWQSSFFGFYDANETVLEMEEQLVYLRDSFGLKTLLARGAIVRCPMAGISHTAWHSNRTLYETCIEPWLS
# UniProt Q9UPY8, whole entry: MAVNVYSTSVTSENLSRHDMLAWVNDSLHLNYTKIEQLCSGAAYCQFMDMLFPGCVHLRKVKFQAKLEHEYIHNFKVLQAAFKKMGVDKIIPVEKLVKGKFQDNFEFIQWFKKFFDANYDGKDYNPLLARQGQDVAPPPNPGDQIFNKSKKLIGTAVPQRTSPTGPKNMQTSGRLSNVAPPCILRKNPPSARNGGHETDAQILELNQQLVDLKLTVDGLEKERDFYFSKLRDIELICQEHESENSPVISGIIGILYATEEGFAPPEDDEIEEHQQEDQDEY
# UniProt Q9UKL3: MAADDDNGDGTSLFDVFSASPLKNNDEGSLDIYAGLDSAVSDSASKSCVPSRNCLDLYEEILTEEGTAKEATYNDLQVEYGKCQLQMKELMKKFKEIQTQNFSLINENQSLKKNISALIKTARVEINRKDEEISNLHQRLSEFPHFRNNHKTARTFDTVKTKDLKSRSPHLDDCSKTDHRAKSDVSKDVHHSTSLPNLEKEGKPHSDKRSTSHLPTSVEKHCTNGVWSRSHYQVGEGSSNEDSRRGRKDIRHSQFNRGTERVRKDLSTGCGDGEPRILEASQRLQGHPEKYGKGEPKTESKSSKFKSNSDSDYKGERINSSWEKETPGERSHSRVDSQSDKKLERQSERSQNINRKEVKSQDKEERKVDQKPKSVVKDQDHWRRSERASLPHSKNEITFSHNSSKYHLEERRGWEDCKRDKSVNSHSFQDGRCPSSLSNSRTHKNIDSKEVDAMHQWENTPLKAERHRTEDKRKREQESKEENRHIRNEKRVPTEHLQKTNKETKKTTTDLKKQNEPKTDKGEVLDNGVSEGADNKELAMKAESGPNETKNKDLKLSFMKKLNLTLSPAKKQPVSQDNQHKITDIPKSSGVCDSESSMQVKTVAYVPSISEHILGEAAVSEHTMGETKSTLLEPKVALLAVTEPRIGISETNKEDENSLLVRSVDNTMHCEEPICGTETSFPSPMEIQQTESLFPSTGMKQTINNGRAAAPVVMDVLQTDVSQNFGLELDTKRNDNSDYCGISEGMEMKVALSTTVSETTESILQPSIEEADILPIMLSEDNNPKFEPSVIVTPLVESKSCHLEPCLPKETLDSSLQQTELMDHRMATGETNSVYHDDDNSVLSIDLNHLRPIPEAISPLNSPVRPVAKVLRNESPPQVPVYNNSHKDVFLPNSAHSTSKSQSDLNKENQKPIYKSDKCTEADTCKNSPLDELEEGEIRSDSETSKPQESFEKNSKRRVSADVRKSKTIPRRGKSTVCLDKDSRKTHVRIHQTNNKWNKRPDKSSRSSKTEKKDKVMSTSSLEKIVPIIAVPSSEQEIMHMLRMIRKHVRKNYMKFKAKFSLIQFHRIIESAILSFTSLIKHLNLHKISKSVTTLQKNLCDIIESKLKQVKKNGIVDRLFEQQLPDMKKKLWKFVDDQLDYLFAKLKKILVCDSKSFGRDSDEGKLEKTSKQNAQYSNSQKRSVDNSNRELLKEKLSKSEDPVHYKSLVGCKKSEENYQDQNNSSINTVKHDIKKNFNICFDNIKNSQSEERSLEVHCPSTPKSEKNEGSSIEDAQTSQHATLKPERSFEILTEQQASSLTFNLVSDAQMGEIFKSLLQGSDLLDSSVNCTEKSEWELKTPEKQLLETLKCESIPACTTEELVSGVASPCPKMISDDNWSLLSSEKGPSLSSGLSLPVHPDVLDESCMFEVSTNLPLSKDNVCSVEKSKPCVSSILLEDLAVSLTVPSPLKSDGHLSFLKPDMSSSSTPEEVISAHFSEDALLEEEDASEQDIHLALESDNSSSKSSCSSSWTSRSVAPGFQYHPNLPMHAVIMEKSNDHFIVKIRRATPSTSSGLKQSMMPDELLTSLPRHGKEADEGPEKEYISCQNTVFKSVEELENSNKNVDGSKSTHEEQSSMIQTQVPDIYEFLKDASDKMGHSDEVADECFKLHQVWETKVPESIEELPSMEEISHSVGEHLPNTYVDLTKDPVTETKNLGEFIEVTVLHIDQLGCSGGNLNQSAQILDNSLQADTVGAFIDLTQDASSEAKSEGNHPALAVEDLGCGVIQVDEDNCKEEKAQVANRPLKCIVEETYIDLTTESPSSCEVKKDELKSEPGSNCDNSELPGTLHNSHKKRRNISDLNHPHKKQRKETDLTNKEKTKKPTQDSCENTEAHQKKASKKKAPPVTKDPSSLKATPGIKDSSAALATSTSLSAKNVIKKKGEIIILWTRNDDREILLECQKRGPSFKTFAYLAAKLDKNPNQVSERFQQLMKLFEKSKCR
# UniProt Q9UJX3, whole entry: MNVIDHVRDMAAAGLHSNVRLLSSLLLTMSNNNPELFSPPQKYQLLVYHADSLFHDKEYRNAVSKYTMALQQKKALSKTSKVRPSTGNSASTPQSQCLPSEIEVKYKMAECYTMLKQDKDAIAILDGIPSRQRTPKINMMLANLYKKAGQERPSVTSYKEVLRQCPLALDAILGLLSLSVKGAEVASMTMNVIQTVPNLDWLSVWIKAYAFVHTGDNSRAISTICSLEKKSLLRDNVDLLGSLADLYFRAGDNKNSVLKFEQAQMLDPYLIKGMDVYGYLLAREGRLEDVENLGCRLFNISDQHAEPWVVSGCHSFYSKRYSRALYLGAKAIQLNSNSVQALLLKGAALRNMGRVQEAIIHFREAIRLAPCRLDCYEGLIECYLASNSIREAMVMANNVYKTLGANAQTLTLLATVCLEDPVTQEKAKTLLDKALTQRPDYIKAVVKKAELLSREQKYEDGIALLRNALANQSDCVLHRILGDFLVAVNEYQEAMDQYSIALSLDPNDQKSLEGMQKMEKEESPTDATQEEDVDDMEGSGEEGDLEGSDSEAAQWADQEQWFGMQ
# UniProt Q9ULC4: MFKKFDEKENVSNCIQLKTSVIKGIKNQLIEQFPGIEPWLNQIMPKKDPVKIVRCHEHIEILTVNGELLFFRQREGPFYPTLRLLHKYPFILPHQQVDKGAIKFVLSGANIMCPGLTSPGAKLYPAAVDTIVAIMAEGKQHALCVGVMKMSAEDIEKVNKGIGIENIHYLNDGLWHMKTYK
# UniProt Q9UJU2, whole entry: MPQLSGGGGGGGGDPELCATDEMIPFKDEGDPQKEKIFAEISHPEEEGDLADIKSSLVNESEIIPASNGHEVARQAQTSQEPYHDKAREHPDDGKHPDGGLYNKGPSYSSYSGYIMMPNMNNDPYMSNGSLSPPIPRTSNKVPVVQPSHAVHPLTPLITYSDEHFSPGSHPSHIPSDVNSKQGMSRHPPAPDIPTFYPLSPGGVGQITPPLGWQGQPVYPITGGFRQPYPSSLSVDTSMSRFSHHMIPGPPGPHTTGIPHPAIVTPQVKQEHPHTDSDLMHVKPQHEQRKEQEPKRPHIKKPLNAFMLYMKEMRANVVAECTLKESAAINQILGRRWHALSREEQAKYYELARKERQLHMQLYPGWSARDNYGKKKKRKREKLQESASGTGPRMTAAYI
# UniProt Q9Y253: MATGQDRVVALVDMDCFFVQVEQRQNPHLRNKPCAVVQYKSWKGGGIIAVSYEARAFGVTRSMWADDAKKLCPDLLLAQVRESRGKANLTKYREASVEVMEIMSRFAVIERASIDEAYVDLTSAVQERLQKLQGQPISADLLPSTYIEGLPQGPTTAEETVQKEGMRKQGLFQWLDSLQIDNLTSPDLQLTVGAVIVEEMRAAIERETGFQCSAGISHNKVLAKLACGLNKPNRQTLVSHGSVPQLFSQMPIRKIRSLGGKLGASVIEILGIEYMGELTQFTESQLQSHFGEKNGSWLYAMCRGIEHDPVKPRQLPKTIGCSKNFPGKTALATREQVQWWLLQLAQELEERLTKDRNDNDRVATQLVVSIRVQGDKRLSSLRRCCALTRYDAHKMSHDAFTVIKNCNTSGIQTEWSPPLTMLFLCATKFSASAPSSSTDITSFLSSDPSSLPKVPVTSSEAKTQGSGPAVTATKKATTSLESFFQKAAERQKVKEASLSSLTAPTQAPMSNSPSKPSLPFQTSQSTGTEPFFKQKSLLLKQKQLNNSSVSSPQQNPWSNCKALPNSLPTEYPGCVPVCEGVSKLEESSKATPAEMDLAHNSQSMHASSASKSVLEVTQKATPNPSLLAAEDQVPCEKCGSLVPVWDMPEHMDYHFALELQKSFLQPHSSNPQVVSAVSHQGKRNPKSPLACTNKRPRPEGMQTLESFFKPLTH
# UniProt Q9ULW0, whole entry: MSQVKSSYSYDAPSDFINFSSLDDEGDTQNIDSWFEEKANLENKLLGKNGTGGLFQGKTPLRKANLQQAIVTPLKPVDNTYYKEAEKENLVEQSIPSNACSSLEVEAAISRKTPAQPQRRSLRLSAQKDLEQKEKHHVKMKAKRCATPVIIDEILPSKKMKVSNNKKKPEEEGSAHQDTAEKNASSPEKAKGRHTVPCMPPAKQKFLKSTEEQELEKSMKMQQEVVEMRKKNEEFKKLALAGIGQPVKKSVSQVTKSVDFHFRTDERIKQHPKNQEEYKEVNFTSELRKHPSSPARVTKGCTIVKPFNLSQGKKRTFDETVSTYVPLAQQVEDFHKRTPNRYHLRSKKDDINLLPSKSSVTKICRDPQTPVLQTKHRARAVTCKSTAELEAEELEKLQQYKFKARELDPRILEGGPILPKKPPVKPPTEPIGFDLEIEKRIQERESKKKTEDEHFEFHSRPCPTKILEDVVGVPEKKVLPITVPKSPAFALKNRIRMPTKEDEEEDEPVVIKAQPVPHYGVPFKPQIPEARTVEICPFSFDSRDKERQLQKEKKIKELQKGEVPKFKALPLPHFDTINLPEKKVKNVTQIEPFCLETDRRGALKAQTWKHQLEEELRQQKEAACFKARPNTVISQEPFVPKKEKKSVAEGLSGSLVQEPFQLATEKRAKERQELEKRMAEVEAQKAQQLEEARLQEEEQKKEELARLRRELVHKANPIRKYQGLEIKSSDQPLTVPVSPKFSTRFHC
# Some of the results follow. Most entries show no effect beyond the scatter of the controls.
# Compound: Cc1nc(Nc2ncc(C(=O)Nc3c(C)cccc3Cl)s2)cc(N2CCN(CCO)CC2)n1 [dasatinib]
# Assay: log2 fold change of tryptic peptide abundance, ligand vs vehicle (limited proteolysis) (log2 ratio); higher = more trypsin-susceptible (destabilized)
# Settings: ligand concentration: 5 uM; sample: K562 cleared lysate
row,Target,log2 fold change
1,"UniProt Q9UPN7 (peptide sequence: VMGILINR, peptide start residue: 127)",-0.223
2,"GMEB2 (peptide sequence: VQDPPLQLR, peptide start residue: 268) (UniProt Q9UKD1)",-0.204
3,"PACSIN3 (peptide sequence: LKEVEASKK, peptide start residue: 147) (UniProt Q9UKS6)",-0.573
4,"EIF3L (peptide sequence: IQLLVFK, peptide start residue: 488) (UniProt Q9Y262)",-0.25
5,"PARP4 (peptide sequence: AHSPASLSFASYR, peptide start residue: 1333) (UniProt Q9UKK3)",-0.38
6,"UBQLN2 (peptide sequence: NPEISHLLNNPDIMR, peptide start residue: 218) (UniProt Q9UHD9)",0.0522
7,"L1RE1 (peptide sequence: YQPLQNHAK, peptide start residue: 329) (UniProt Q9UN81)",-0.103
8,"PPT2 (peptide sequence: WLFPTSMR, peptide start residue: 151) (UniProt Q9UMR5)",-0.336
9,"ANKRD26 (peptide sequence: EYASSGPALQMK, peptide start residue: 602) (UniProt Q9UPS8)",0.41
10,"MAPRE3 (peptide sequence: FFDANYDGK, peptide start residue: 114) (UniProt Q9UPY8)",-0.0493
11,"CASP8AP2 (peptide sequence: DVHHSTSLPNLEK, peptide start residue: 188) (UniProt Q9UKL3)",0.449
12,"DPP7 (peptide sequence: GALLVFAEHR, peptide start residue: 99) (UniProt Q9UHL4)",0.0565
13,"UniProt Q9UHC6 (peptide sequence: GTYHTNEAK, peptide start residue: 89)",-0.144
14,"MED13 (peptide sequence: DCCNDCYLALEHGR, peptide start residue: 1227) (UniProt Q9UHV7)",-0.673
15,"STUB1 (peptide sequence: LGAGGGSPEKSPSAQELK, peptide start residue: 13) (UniProt Q9UNE7)",0.124
16,"ZNF639 (peptide sequence: CSDCLMR, peptide start residue: 462) (UniProt Q9UID6)",0.789
17,"ANAPC7 (peptide sequence: INMMLANLYK, peptide start residue: 137) (UniProt Q9UJX3)",-0.681
18,"NUDT5 (peptide sequence: TTYMDPTGK, peptide start residue: 34) (UniProt Q9UKK9)",0.0683
19,"MCTS1 (peptide sequence: GIGIENIHYLNDGLWHMK, peptide start residue: 161) (UniProt Q9ULC4)",0.308
20,"TUBD1 (peptide sequence: AVLVDMEPK, peptide start residue: 63) (UniProt Q9UJT1)",0.242
21,"UniProt Q9UKV8 (peptide sequence: DHQALAKAVQVHQDTLRTMYFA, peptide start residue: 838)",-0.486
22,"SETD1B (peptide sequence: KYGEVEEVEILYNPK, peptide start residue: 125) (UniProt Q9UPS6)",0.288
23,"UniProt Q9UPN6 (peptide sequence: QAEPEEKVPHLIDHQISSGENTR, peptide start residue: 763)",-0.26
24,"PLCL2 (peptide sequence: PKGSGAK, peptide start residue: 769) (UniProt Q9UPR0)",0.0705
25,"LEF1 (peptide sequence: LQESASGTGPR, peptide start residue: 383) (UniProt Q9UJU2)",-0.209
26,"UniProt Q9Y253 (peptide sequence: KLCPDLLLAQVR, peptide start residue: 70)",-0.191
27,"TPX2 (peptide sequence: HTVPCMPPAK, peptide start residue: 194) (UniProt Q9ULW0)",0.347

# Some of the entries so far, tab-delimited.
row	Target	log2 fold change
17	ANAPC7 (peptide sequence: INMMLANLYK, peptide start residue: 137) (UniProt Q9UJX3)	-0.681
18	NUDT5 (peptide sequence: TTYMDPTGK, peptide start residue: 34) (UniProt Q9UKK9)	0.0683
